The record followed here is patent US20120094909A1.

Chains of the proteins cited; added tags and fusions are not shown. Lines headed by an entry give the natural chain unless they say otherwise; changes in a name come on top. Residues count along the entry.
UniProt P02768: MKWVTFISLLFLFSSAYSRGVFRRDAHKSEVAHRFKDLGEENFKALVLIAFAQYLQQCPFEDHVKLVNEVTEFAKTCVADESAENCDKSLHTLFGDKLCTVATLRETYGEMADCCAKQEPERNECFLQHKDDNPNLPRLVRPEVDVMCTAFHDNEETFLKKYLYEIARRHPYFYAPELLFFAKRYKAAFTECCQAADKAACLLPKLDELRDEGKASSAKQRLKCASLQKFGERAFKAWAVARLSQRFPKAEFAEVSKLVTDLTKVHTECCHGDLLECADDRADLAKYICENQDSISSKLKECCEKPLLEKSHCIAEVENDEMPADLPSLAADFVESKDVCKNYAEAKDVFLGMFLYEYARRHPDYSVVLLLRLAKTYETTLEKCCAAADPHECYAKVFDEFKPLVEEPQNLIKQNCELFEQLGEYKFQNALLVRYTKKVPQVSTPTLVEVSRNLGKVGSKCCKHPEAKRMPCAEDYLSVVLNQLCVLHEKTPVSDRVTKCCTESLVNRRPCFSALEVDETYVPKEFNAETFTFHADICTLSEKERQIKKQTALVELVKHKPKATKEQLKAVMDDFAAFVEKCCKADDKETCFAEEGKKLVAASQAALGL
human serum albumin: residues 25-609 of P02768
UniProt Q28522, residues 17-600: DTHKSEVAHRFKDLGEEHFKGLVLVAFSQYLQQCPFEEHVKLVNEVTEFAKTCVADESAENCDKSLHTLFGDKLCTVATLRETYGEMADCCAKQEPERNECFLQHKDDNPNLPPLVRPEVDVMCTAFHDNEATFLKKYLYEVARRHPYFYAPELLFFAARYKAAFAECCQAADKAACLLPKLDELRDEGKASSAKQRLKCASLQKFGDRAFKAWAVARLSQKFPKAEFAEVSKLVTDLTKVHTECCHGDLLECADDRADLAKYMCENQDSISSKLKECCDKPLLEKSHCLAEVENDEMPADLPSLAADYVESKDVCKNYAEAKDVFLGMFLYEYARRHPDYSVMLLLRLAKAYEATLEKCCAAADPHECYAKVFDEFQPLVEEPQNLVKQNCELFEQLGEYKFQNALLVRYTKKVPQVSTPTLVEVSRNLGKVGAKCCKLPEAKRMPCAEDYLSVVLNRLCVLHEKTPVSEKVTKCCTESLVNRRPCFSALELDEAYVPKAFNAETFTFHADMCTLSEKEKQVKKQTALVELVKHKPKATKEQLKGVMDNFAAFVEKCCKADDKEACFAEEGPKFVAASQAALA
UniProt Q8NBP7, residues 31-692: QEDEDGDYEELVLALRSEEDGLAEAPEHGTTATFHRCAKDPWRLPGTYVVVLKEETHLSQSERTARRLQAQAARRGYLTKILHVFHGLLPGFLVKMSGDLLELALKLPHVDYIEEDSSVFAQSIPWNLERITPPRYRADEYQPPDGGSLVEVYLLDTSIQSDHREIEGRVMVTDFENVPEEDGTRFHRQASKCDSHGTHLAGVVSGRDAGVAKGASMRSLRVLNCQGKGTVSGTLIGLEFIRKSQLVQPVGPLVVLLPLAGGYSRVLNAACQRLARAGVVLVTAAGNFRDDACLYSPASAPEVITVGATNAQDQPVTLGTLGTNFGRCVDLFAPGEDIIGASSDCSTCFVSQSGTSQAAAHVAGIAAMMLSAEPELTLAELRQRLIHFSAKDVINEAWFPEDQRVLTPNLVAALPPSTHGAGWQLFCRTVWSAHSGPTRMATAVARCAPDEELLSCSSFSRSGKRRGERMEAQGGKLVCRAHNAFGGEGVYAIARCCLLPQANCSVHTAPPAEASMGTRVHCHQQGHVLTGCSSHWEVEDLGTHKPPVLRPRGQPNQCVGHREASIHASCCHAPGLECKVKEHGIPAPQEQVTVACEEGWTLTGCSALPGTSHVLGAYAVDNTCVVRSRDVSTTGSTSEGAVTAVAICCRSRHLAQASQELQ

The target in test [1] is human serum albumin (human) (UniProt P02768). The test is described as follows: SPR, captured albumin, pH 5.5 to 7.4. In general terms: Surface plasmon resonance follows binding to a sensor surface in real time, without labels.
The target in test [2] is rhesus serum albumin (rhesus) (UniProt Q28522). The test is described as follows: SPR, captured albumin.
Test [3] has as its target human serum albumin (human) (UniProt P02768). The test is described as follows: Biacore, captured HSA and HSA domain constructs.
Test [4] has as its target HSA-domain I-II construct (human) (UniProt P02768). The test is described as follows: BIACORE domain mapping, HSA-domain I-II construct captured on chip.
For test [5] the target is unchanged. The test is described as follows: Biacore, captured HSA and HSA domain constructs.
The target of test [6] is human PCSK9 (proprotein convertase subtilisin kexin type 9) (human) (UniProt Q8NBP7). Description: ITC. For orientation: In ITC the heat of successive injections is recorded.
The target is the same in test [7]. Description: unbound plasma hPCSK9, hPCSK9 transgenic mice.

No constants are given. Whether binding was seen depends on the method and setting. Some binding calls cover weakened binding; strength is not graded here.

B1: SABA3.1 (designed binder)
chain: MGVSDVPRDLEVVAATPTSLLISWSNDGPGLSYYRITYGETGGNSPVQEFTVPSSQTTATISGLKPGVDYTITVYAVSYYTKKAYSAGPISINYRTEIDKPSQHHHHHH
B1: the binding entry in test [1], in test [2] and in test [3] was “binds” in each case.

B2: SABA2.1 (designed binder)
chain: MGVSDVPRDLEVVAATPTSLLISWPKYDKTGHYYRITYGETGGNSPVQEFTVPTRQTTATISGLKPGVDYTITVYAVSKDDYYPHEHRPISINYRTEIDKPSQHHHHHH
In the case of B2, the binding result in test [4], in test [2], in test [3] and in test [5] was “binds” throughout.

B3: SABA1.1 (designed binder)
chain: MGVSDVPRDLEVVAATPTSLLISWHSYYEQNSYYRITYGETGGNSPVQEFTVPYSQTTATISGLKPGVDYTITVYAVYGSKYYYPISINYRTEIDKPSQHHHHHH
On to B3, for which the binding result in test [4] and in test [5] was “binds” each time.

B4: 2013E01 (designed binder)
chain: MGVSDVPRDLEVVAATPTSLLISWVPPSDDYGYYRITYGETGGNSPVQEFTVPIGKGTATISGLKPGVDYTITVYAVEFPWPHAGYYHRPISINYRTEIDKPSQHHHHHH
Regarding B4, the binding result in test [6] and in test [7] was “binds” in each case.
